Data on 17 molecules can be found in PubChem BioAssay AID493014 (National Center for Advancing Translational Sciences (NCATS), 2011).

This is one part of the list. These are further read-outs of the screen, such as a control signal, another cell line or another target. No call is given for them. Most of these compounds were active or inconclusive in the main read-out, so they are no random draw. Words in brackets tell the shape of the fitted curve; partial curves, single points and poor fits give uncertain potencies.

The nature of this assay: qHTS Assay to Find Inhibitors of Chronic Active B-Cell Receptor Signaling. The settings on record: ABC-DLBCL IkBa-CBG/CBR reporter, luminescence ratio (green luciferase fused to IkBa over red control in TMD8 lymphoma cells), 4 h. The gist of the method:
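Concentration-response series (up to 46 uM) were applied to TMD8 dual-reporter cells for 4 h at 37C with doxycycline. Green/red ratio, after filter-overlap correction, defined %Activity; red signal alone was normalised to basal cells and zero luminescence.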
(In qHTS, concentration-response curves come from the screen itself.)

Setting [1] is: measured here: CBR red luminescence, cell number.

As for `CCOc1ccc2nc(SCC(=O)NC(=O)C(C)C)sc2c1`, under setting [1], the half-maximal activity concentration (AC50) was 10 µM [falling, partial curve, poor fit].

In the case of `O=c1c2ccccc2nc(/C=C\c2ccc(F)cc2)n1-c1ccccc1F`, the half-maximal activity concentration (AC50) under setting [1] is 25.1 µM [rising, partial curve, poor fit].

`CC(C)=CCc1c2c(c3occ(-c4ccc(O)cc4)c(=O)c3c1O)C=CC(C)(C)O2`: under setting [1], the AC50 was 11.2 µM [rising, partial curve].

As to `Cc1cccnc1-n1c(-c2ccco2)nc2ccccc2c1=O`, under setting [1], the AC50 was 3.55 µM [falling, single point].

For `C[C@]12CCC(=O)C=C1CC[C@@H]1[C@@H]2CC[C@@]2(C)[C@H]1CC[C@]2(C)O`, the AC50 under setting [1] is 2.24 µM [rising, partial curve, poor fit].

On to `Cc1ccccc1C1=NCC(=S)Nc2ccc(Cl)cc21`, for which the AC50 under setting [1] is 1.16 µM [falling, full curve, poor fit].

For `COC(=O)C1=C(c2ccc(F)cc2OCc2ccccc2)C[C@@H]2CC[C@H]1N2C(=O)NC1CC1`, the AC50 under setting [1] was 23.1 µM [falling, partial curve, poor fit].

For `CN1CCc2c(C#N)c(Cl)nc(Cl)c2C1`, the AC50 under setting [1] was 3.26 µM [falling, full curve, poor fit].

Regarding `COC(=O)C1=C(c2cccc(OCc3ccccc3)c2)C[C@@H]2CC[C@H]1N2C(=O)NCCOc1ccccc1`, the concentration at half-maximal activity (AC50) under setting [1] was 23.1 µM [falling, single point].

Consider `O=C(N/N=C\c1ccc([N+](=O)[O-])o1)c1cncc(Br)c1`, for which the AC50 under setting [1] was 28.2 µM [falling, single point].

For the molecule `CN=c1scc(C)n1/N=C/c1ccc(O)cc1O`, the AC50 under setting [1] was 10 µM [falling, partial curve, poor fit].

As for `CCCCCCOc1ccc(CN2CCN(C)CC2)cc1`, the AC50 is 4.61 µM [falling, single point] under setting [1] and 2.91 µM [rising, single point] (measured here: IkBa-CBG green luminescence).

Take `Cc1nc2cc(-c3ccccc3)nn2c(C)c1CCC(=O)N1CCC2(CC1)OCCO2`: under setting [1], the half-maximal activity concentration (AC50) is 2.31 µM [falling, full curve].

Take `Cc1ccc(CC2C(=O)N(C)C(=O)N(C)C2=O)s1`: the concentration at half-maximal activity (AC50) under setting [1] was 0.58 µM [falling, full curve].

Turning to `CCCCCn1c(N)c(C(=O)NCCN2CCOCC2)c2nc3ccccc3nc21`, the AC50 under setting [1] was 35.5 µM [falling, single point].

Consider `O=C1CN=C(c2ccccc2)c2oc3ccc(Br)cc3c2N1`, for which the half-maximal activity concentration (AC50) under setting [1] was 3.55 µM [rising, full curve].

As for `COC(=O)C1=C(c2ccc(OC(F)(F)F)cc2)C[C@@H]2CC[C@H]1N2C(=O)NCCOc1ccc(OC)cc1`, under setting [1], the AC50 was 18.4 µM [falling, single point].

For orientation: AC50 means the concentration at which the activity in the assay is half-maximal.
